The values below come from article PMC10700218.

Chains of the proteins cited; added tags and fusions are not shown.
UniProt Q9NYF8: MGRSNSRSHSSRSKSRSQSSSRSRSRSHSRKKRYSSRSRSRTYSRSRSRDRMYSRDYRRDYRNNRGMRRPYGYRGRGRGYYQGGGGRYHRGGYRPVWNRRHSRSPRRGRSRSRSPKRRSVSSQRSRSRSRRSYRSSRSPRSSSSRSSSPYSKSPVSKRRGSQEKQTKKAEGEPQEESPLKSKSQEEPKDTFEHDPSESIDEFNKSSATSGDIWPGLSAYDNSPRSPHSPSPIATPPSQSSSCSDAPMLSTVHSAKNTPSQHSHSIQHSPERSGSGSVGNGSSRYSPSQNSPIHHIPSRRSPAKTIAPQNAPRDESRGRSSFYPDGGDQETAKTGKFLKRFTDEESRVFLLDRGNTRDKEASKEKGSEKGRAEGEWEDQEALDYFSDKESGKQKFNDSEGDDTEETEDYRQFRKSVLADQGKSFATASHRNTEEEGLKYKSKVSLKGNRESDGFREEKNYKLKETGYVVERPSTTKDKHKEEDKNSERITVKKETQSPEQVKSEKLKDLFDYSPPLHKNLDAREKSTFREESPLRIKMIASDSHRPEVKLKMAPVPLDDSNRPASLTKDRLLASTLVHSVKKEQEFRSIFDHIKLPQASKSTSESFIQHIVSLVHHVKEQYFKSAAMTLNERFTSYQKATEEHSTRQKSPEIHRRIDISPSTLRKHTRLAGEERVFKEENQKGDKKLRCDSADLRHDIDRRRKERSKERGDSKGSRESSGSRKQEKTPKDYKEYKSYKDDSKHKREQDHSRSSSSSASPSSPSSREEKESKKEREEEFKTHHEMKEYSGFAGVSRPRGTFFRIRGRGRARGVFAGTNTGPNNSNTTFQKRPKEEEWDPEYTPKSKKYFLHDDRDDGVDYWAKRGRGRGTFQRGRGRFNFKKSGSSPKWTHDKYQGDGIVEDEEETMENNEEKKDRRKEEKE
UniProt Q9GZT9: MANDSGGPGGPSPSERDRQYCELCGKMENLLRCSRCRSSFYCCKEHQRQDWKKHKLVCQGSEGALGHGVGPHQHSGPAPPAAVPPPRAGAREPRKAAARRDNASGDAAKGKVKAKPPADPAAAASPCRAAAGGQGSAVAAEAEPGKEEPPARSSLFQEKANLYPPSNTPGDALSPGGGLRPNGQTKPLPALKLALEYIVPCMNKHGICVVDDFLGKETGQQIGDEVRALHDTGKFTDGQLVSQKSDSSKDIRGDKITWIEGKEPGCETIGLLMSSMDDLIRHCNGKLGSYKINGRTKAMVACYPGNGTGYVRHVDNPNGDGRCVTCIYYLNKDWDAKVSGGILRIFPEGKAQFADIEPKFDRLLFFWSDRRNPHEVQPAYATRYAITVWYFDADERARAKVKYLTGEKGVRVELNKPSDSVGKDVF

The target of this assay is Bcl-2-associated transcription factor-1 (BCLAF1) (human (in 293T and Hep3B cells; endogenous or transfected not stated)) (UniProt Q9NYF8). As to the kind of experiment: co-IP; cell lysate, cell line not stated; which protein was precipitated not stated; Western blot. On the technique in general: Immunoblotting shows a protein as a band on a membrane.

These are yes or no findings as the source states them, for the method shown. Binding seen in cells or lysates may run through a third protein. Some entries that bind do so weakly or less than the wild type.

On to “prolyl hydroxylase domain protein 2 (PHD2) (from UniProt Q9GZT9 1-426)”, for which the binding result was “binds”.
